# Source: patent US20200405889A1
# Protein sequences, listed by entry. Tags and fused reporters are not part of them.
# UniProt P41597: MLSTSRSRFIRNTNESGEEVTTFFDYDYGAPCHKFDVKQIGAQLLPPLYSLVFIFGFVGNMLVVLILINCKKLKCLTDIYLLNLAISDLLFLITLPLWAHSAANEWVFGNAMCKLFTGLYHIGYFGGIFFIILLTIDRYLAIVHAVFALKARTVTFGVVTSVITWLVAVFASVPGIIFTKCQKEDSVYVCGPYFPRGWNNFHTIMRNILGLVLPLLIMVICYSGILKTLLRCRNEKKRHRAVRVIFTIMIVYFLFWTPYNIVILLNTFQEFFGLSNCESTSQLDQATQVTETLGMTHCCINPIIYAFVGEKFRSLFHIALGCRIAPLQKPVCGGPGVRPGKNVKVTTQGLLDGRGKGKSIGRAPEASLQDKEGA
# No constants are given. Whether binding was seen depends on the method and setting. Some binding calls cover weakened binding; strength is not graded here.
# Target: human CCR2 (hCCR2) (human) (UniProt P41597)
# Assay: flow cytometry of cells digested from a human COPD lung sample
binder,measurement,value
LGTFLKC (Alexa Fluor 647 label; site of attachment not stated) [ECL1i-647 (Alexa Fluor 647)],binding,binds
